Data published in PMC7042714.
These are yes or no findings as the source states them, for the method shown. One block for each binder: values may come before it.

Experiments:
[1] = target: T1, NUP93 (human (endogenous in HeLa)), Q8N1F7; experiment: SEC; SEC-SWATH-MS: native extract (0.5% NP-40, freeze-thaw) of HeLa CCL2 cells synchronized in interphase (double thymidine block) or mitosis (thymidine, nocodazole, shake-off); SRT-C-SEC 500 column, 50 mM HEPES pH 7.5, 150 mM NaCl, 0-4°C; 65 fractions profiled by SWATH-MS, triplicates; association inferred from co-elution; details: remark: other sources report otherwise
T1 chain: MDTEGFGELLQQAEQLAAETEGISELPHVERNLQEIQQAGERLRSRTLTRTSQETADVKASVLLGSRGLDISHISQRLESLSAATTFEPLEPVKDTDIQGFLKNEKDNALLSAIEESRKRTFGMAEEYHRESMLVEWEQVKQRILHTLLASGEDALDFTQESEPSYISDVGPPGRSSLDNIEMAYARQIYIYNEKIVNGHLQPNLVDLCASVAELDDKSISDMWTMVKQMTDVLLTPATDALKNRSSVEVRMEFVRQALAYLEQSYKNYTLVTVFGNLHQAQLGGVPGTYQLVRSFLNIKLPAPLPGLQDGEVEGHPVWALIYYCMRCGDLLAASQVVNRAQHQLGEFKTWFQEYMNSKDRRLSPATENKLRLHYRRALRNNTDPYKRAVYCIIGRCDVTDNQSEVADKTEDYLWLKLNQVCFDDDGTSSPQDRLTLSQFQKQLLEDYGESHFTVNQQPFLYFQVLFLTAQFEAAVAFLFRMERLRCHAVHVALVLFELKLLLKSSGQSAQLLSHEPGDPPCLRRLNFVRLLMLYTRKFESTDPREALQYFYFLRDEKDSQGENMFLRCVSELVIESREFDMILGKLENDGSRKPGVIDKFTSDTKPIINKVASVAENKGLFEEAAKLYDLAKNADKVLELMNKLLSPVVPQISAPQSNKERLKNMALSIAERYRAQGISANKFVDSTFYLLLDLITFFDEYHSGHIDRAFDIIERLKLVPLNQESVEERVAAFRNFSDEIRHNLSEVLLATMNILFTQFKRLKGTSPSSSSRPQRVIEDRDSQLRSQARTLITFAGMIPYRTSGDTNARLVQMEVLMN

[2] = target: T2, SEC24B (human (endogenous in HeLa)), O95487; experiment: as above; details: remark: other sources report otherwise
T2 chain: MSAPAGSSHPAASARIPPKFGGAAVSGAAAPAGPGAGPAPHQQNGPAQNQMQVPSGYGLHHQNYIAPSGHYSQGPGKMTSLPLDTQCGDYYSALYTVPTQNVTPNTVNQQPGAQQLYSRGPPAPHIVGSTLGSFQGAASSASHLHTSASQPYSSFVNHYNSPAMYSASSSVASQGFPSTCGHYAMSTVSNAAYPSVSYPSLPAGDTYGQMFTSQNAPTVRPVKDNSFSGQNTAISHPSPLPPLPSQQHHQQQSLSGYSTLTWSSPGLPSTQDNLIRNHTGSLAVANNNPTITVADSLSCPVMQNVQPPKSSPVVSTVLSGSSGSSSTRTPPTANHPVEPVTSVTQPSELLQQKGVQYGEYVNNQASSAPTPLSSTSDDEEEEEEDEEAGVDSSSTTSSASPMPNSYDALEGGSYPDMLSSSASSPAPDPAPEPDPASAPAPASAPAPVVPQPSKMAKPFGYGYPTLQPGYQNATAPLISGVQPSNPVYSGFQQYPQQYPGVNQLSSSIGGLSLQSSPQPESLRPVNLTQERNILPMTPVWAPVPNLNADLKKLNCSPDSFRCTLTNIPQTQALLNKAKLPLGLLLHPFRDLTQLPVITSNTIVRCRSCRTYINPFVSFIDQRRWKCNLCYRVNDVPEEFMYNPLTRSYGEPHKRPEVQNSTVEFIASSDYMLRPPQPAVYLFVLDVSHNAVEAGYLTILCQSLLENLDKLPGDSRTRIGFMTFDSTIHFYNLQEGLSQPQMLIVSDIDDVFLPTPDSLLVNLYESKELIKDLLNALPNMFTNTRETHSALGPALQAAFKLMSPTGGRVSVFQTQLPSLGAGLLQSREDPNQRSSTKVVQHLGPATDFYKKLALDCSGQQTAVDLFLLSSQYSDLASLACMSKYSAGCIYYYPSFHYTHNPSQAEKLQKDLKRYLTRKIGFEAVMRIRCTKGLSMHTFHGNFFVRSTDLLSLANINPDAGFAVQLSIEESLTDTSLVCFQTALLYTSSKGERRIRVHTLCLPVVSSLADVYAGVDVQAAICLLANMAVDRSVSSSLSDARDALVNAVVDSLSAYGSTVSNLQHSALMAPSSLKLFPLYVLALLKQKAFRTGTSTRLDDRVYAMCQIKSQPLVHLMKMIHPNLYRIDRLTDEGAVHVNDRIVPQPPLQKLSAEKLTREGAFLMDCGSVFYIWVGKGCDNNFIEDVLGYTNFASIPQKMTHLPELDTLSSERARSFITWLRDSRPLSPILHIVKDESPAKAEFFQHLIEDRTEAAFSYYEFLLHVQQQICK

binding [1]: no binding
B1: NUP50, Q9UKX7 1-468 (protein)
chain: MAKRNAEKELTDRNWDQEDEAEEVGTFSMASEEVLKNRAIKKAKRRNVGFESDTGGAFKGFKGLVVPSGGGRFSGFGSGAGGKPLEGLSNGNNITSAPPFASAKAAADPKVAFGSLAANGPTTLVDKVSNPKTNGDSQQPSSSGLASSKACVGNAYHKQLAALNCSVRDWIVKHVNTNPLCDLTPIFKDYEKYLANIEQQHGNSGRNSESESNKVAAETQSPSLFGSTKLQQESTFLFHGNKTEDTPDKKMEVASEKKTDPSSLGATSASFNFGKKVDSSVLGSLSSVPLTGFSFSPGNSSLFGKDTTQSKPVSSPFPTKPLEGQAEGDSGECKGGDEEENDEPPKVVVTEVKEEDAFYSKKCKLFYKKDNEFKEKGIGTLHLKPTANQKTQLLVRADTNLGNILLNVLIPPNMPCTRTGKNNVLIVCVPNPPIDEKNATMPVTMLIRVKTSEDADELHKILLEKKDA

binding [2]: no binding
B2: SEC13, P55735 1-322 (protein)
chain: MVSVINTVDTSHEDMIHDAQMDYYGTRLATCSSDRSVKIFDVRNGGQILIADLRGHEGPVWQVAWAHPMYGNILASCSYDRKVIIWREENGTWEKSHEHAGHDSSVNSVCWAPHDYGLILACGSSDGAISLLTYTGEGQWEVKKINNAHTIGCNAVSWAPAVVPGSLIDHPSGQKPNYIKRFASGGCDNLIKLWKEEEDGQWKEEQKLEAHSDWVRDVAWAPSIGLPTSTIASCSQDGRVFIWTCDDASSNTWSPKLLHKFNDVVWHVSWSITANILAVSGGDNKVTLWKESVDGQWVCISDVNKGQGSVSASVTEGQQNEQ
